Like-named read-outs stand apart in the source and are kept apart here. Results are given in words; binding and its absence hold for the method and conditions named. In cells and extracts the contact can be indirect. A yes stands for co-enrichment or nearness to the bait. Other partners may have been found.

The chains behind the UniProt entries cited, without tags or fusion partners.
UniProt Q9HC52: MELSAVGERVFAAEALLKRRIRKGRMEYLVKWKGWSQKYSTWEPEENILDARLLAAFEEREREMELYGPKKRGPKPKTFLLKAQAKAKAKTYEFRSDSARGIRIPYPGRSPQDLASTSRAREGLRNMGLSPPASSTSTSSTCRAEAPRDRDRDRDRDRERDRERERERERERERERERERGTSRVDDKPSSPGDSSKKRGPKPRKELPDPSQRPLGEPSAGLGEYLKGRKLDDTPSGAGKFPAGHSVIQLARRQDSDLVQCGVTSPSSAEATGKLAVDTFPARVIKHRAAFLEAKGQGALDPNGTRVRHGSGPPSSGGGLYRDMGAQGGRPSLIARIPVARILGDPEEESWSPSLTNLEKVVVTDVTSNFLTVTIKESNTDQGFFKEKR
UniProt Q9Y483: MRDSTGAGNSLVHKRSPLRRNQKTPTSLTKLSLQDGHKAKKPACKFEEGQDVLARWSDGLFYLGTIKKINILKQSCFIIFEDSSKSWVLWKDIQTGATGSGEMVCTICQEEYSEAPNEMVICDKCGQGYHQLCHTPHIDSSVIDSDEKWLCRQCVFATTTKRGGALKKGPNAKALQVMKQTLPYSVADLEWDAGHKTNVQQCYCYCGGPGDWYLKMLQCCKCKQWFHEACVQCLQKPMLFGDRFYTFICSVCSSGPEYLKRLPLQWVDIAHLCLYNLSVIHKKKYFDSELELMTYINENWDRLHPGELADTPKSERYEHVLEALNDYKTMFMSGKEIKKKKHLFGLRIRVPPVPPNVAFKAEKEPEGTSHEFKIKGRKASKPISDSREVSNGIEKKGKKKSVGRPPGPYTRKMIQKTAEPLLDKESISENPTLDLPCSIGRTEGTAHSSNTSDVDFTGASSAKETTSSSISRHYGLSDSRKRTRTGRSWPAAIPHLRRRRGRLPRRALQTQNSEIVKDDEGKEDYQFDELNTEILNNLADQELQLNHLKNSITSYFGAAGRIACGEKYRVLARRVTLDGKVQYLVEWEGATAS

This passage reports binding results from article PMC13138344, “Embryonic stem cell factors DPPA2/4 amplify active H3K4me3–H2AK119ub chromatin domains in non-small cell lung cancer” (Genes & Development, 2026).

Assay [1] concerns the target T1, developmental pluripotency-associated 4 (DPPA4) (human (endogenous in NCI-H661)) (UniProt Q7L190).
T1 sequence: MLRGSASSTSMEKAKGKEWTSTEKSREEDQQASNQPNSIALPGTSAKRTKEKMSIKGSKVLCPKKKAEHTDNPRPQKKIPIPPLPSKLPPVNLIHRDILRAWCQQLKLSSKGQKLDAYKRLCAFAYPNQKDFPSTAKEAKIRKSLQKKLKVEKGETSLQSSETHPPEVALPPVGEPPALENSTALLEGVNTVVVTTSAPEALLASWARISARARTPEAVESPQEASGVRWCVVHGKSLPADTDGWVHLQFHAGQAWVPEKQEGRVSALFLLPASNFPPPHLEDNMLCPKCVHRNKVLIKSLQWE
Description: affinity purification with mass spectrometry; RIME: chromatin double-cross-linked before immunoprecipitation with DPPA2/4 antibodies or isotype-matched IgG controls; wild-type NCI-H661 clones (n = 2), CRISPR double-knockout clones (n = 2) as negative controls.

Assay [2] deals with T2, developmental pluripotency-associated 2 (DPPA2) (human (endogenous in NCI-H661)) (UniProt Q7Z7J5).
T2 sequence: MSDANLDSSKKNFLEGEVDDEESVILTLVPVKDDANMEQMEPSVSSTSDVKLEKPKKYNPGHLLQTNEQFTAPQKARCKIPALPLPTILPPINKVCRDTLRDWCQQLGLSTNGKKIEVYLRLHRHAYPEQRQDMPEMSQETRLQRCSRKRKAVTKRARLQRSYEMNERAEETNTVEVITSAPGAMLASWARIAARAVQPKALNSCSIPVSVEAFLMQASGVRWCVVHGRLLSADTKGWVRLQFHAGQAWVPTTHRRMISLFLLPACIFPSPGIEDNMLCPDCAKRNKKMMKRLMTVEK
Description: affinity purification with mass spectrometry; IP of endogenous DPPA2 or DPPA4 from NCI-H661 whole-cell lysates, species-matched IgG IP control, label-free quantitation, n = 4 per condition.

The target in assay [3] is T2, developmental pluripotency-associated 2 (DPPA2) (human (endogenous in NCI-H661)). The description is as above. This is another data set of the same source.
The target in assay [4] is T1, developmental pluripotency-associated 4 (DPPA4) (human (endogenous in NCI-H661)). Described as above.

Take “CBX8 (a component of the canonical PRC1 complex) (from UniProt Q9HC52 1-389)”: in assay [1], the binding entry is reported as “binds”.
With “MTF2 from the Polycomb repressive complex 2 (from UniProt Q9Y483 1-593)”, the binding entry in assay [2] is “binds”.

B1: developmental pluripotency-associated 4 (DPPA4) (natural protein, human (endogenous in NCI-H661), UniProt Q7L190 1-304, looked up)
chain: T1 sequence
notes: DPPA4, human, endogenous in NCI-H661 non-small cell lung cancer cells; source: endogenous, NCI-H661 whole-cell lysate (IP-MS); endogenous, NCI-H661 double-cross-linked chromatin (RIME)
In the case of B1, in assay [3], the binding entry is “binds”.

B2: recombinant DPPA2-Myc/FLAG protein (natural protein, human, UniProt Q7Z7J5 1-298, looked up)
chain: T2 sequence
notes: DPPA2, human, recombinant; The construct is named only in the EMSA legend; source: recombinant
B2: in assay [4], the binding result is recorded as “binds”.

B3: lysine demethylase KDM2A (protein, UniProt Q9Y2K7 1-1162)
chain: MEPEEERIRYSQRLRGTMRRRYEDDGISDDEIEGKRTFDLEEKLHTNKYNANFVTFMEGKDFNVEYIQRGGLRDPLIFKNSDGLGIKMPDPDFTVNDVKMCVGSRRMVDVMDVNTQKGIEMTMAQWTRYYETPEEEREKLYNVISLEFSHTRLENMVQRPSTVDFIDWVDNMWPRHLKESQTESTNAILEMQYPKVQKYCLMSVRGCYTDFHVDFGGTSVWYHIHQGGKVFWLIPPTAHNLELYENWLLSGKQGDIFLGDRVSDCQRIELKQGYTFVIPSGWIHAVYTPTDTLVFGGNFLHSFNIPMQLKIYNIEDRTRVPNKFRYPFYYEMCWYVLERYVYCITNRSHLTKEFQKESLSMDLELNGLESGNGDEEAVDREPRRLSSRRSVLTSPVANGVNLDYDGLGKTCRSLPSLKKTLAGDSSSDCSRGSHNGQVWDPQCAPRKDRQVHLTHFELEGLRCLVDKLESLPLHKKCVPTGIEDEDALIADVKILLEELANSDPKLALTGVPIVQWPKRDKLKFPTRPKVRVPTIPITKPHTMKPAPRLTPVRPAAASPIVSGARRRRVRCRKCKACVQGECGVCHYCRDMKKFGGPGRMKQSCVLRQCLAPRLPHSVTCSLCGEVDQNEETQDFEKKLMECCICNEIVHPGCLQMDGEGLLNEELPNCWECPKCYQEDSSEKAQKRKMEESDEEAVQAKVLRPLRSCDEPLTPPPHSPTSMLQLIHDPVSPRGMVTRSSPGAGPSDHHSASRDERFKRRQLLRLQATERTMVREKENNPSGKKELSEVEKAKIRGSYLTVTLQRPTKELHGTSIVPKLQAITASSANLRHSPRVLVQHCPARTPQRGDEEGLGGEEEEEEEEEEEDDSAEEGGAARLNGRGSWAQDGDESWMQREVWMSVFRYLSRRELCECMRVCKTWYKWCCDKRLWTKIDLSRCKAIVPQALSGIIKRQPVSLDLSWTNISKKQLTWLVNRLPGLKDLLLAGCSWSAVSALSTSSCPLLRTLDLRWAVGIKDPQIRDLLTPPADKPGQDNRSKLRNMTDFRLAGLDITDATLRLIIRHMPLLSRLDLSHCSHLTDQSSNLLTAVGSSTRYSLTELNMAGCNKLTDQTLIYLRRIANVTLIDLRGCKQITRKACEHFISDLSINSLYCLSDEKLIQKIS
As for B3, in assay [3], the binding entry is “binds”.
